Assay results taken from PubChem BioAssay AID330 (DTP/NCI, 2004).
The list does not hold the whole screen: it gathers tests that were run many times, whatever their T/C, doses with no T/C, and many T/C values between a quarter and a half above the control. Further doses and runs are listed elsewhere. T/C gives the treated animals as a percentage of the vehicle group. Some doses have a count of surviving animals in place of a T/C: the source files T/C as zero there, which appears to mark a toxic dose or a test without result, not a measured value. Some doses without a T/C left all or most animals alive at the check, yet need not have been tolerated: survival well below the control is almost never listed, so the zero probably covers shortened survival too. Counts of survivors are from the toxicity check (mostly the fifth day) where no day follows; animals may have died later. Schedule codes are those of the source, taken here to give the interval after Q, in days (D) or hours (H), and the number of doses after X. For survival time, this PubChem deposit counts one and a half times the control or more as active, and values a quarter to a half above the control carry no call in these data; other NCI protocols may use other cut-offs. Some T/C values carry the count of animals alive at the toxicity check (mostly the fifth day); where none is given, no animal had died by that day.

System: P388 leukemia ip, CD2F1 mice, survival T/C
Experiment: NCI In Vivo Anticancer Drug Screen. Data for tumor model P388 Leukemia (intraperitoneal) in CD2F1 (CDF1) mice
Details: T/C endpoint: median survival time, higher T/C = longer survival
[1] = dose: 200.0 mg/kg/injection, schedule: Q01DX009 (ip), vehicle: saline
[2] = dose: 100.0 mg/kg/injection, schedule: Q04DX003 (ip), vehicle: suspension in saline
[3] = dose: 240.0 mg/kg/injection, schedule: Q01DX005 (ip), vehicle: saline with Tween-80

CC[n+]1ccc(Nc2ccc(/C=C/c3ccc4cc(Nc5cc[n+](CC)cc5)ccc4[n+]3CC)cc2)cc1
T/C (dose: 5.0 mg/kg/injection, schedule: Q04DX003 (ip), vehicle: saline sonified): 127 % of control | T/C (dose: 5.0 mg/kg/injection, schedule: Q04DX003 (ip), vehicle: saline with Tween-80): 140 % of control | T/C (dose: 7.5 mg/kg/injection, schedule: Q04DX003 (ip), vehicle: saline sonified): 127 % of control | T/C (dose: 10.0 mg/kg/injection, schedule: Q04DX003 (ip), vehicle: saline with Tween-80): 131 % of control | survivor count (dose: 20.0 mg/kg/injection, schedule: Q04DX003 (ip), vehicle: saline with Tween-80): 2 of 6 | survivor count (dose: 50.0 mg/kg/injection, schedule: Q04DX003 (ip), vehicle: saline with Tween-80): 0 of 6 | survivor count (dose: 100.0 mg/kg/injection, schedule: Q04DX003 (ip), vehicle: saline with Tween-80): 0 of 6 | survivor count (dose: 200.0 mg/kg/injection, schedule: Q04DX003 (ip), vehicle: saline with Tween-80): 0 of 6

CCC(C)C(=O)Nc1ccccc1-c1ccccc1 (centres undefined)
survivor count (dose: 100.0 mg/kg/injection, schedule: Q01DX009 (ip), vehicle: saline): 6 of 6 | survivor count [1]: 6 of 6

OCC1(CO)COC2(CCCCC2)N1
T/C (dose: 400.0 mg/kg/injection, schedule: Q01DX009 (ip), vehicle: saline): 147 % of control

CC=C=CCN(C)Cc1ccccc1
survivor count (dose: 200.0 mg/kg/injection, schedule: Q04DX003 (ip), vehicle: Klucel (hydroxypropylcellulose) (HPC)): 0 of 6

CCCCOCC(=O)O
survivor count [1]: 4 of 6

CCN([NH-])C(=S)[S-].CCN([NH-])C(=S)[S-].[Ni]
T/C (dose: 25.0 mg/kg/injection, schedule: Q04DX003 (ip), vehicle: Klucel (hydroxypropylcellulose) (HPC)): 126 % of control | survivor count (dose: 50.0 mg/kg/injection, schedule: Q04DX003 (ip), vehicle: Klucel (hydroxypropylcellulose) (HPC)): 2 of 6 | survivor count (dose: 100.0 mg/kg/injection, schedule: Q04DX003 (ip), vehicle: Klucel (hydroxypropylcellulose) (HPC)): 1 of 6

Nc1ccc(C(=O)c2ccccc2)cc1
survivor count (dose: 200.0 mg/kg/injection, schedule: Q01DX009 (ip), vehicle: saline with Tween-80): 4 of 6

C(=C/c1cc2ccc(C3=NCCN3)cc2o1)/c1cc2cc(C3=NCCN3)ccc2[nH]1
T/C (dose: 12.5 mg/kg/injection, schedule: Q04DX003 (ip), vehicle: suspension in saline): 131 % of control | T/C (dose: 25.0 mg/kg/injection, schedule: Q04DX003 (ip), vehicle: suspension in saline): 125 % of control | T/C (dose: 50.0 mg/kg/injection, schedule: Q04DX003 (ip), vehicle: suspension in saline): 134 % of control | T/C [2]: 143 % of control [4 of 6 alive] | survivor count [2]: 1 of 6 | survivor count (dose: 400.0 mg/kg/injection, schedule: Q04DX003 (ip), vehicle: suspension in saline): 0 of 6

COc1cccc2c1C(=O)c1c(O)c3c(c(O)c1C2=O)C[C@@](O)(c1csc(N)n1)C[C@@H]3OC1CC(N)C(O)C(C)O1 (some centres undefined)
T/C (dose: 1.56 mg/kg/injection, schedule: Q01DX009 (ip), vehicle: water): 137 % of control | T/C (dose: 3.13 mg/kg/injection, schedule: Q01DX009 (ip), vehicle: water, evaluated on day 30): 140 % of control | T/C (dose: 3.13 mg/kg/injection, schedule: Q01DX009 (ip), vehicle: water, evaluated on day 45): 145 % of control | T/C (dose: 25.0 mg/kg/injection, schedule: Q01DX009 (ip), vehicle: water): 137 % of control | T/C (dose: 25.0 mg/kg/injection, schedule: Q04DX003 (ip), vehicle: water): 125 % of control | survivor count (dose: 50.0 mg/kg/injection, schedule: Q01DX009 (ip), vehicle: water): 5 of 6 | T/C (dose: 50.0 mg/kg/injection, schedule: Q04DX003 (ip), vehicle: water, evaluated on day 30): 125 % of control | T/C (dose: 50.0 mg/kg/injection, schedule: Q04DX003 (ip), vehicle: water, evaluated on day 35): 127 % of control | T/C (dose: 100.0 mg/kg/injection, schedule: Q04DX003 (ip), vehicle: water): 125 % of control

CCOC(=O)/C(C#N)=C(\C)c1ccc2ccccc2c1
survivor count (dose: 60.0 mg/kg/injection, schedule: Q01DX005 (ip), vehicle: saline with Tween-80): 0 of 6 | survivor count (dose: 120.0 mg/kg/injection, schedule: Q01DX005 (ip), vehicle: saline with Tween-80): 0 of 6 | survivor count [3]: 0 of 6

O=C(NC1=C(N2CC2)C(=O)C(NC(=O)OCCO)=C(N2CC2)C1=O)OCCO
T/C (dose: 0.18 mg/kg/injection, schedule: Q01DX009 (ip), vehicle: saline): 131 % of control | T/C (dose: 0.37 mg/kg/injection, schedule: Q01DX009 (ip), vehicle: saline): 140 % of control | T/C (dose: 0.75 mg/kg/injection, schedule: Q01DX009 (ip), vehicle: saline): 132 % of control

Clc1ccc(NCNC2Nc3ccccc3N2)cc1Cl
survivor count [3]: 6 of 6

CC(C)N1CCN(c2ccc(OCC3COC(Cn4cncn4)(c4ccc(Cl)cc4Cl)O3)cc2)CC1 (centres undefined)
survivor count (dose: 200.0 mg/kg/injection, schedule: Q01DX005 (ip), vehicle: Klucel (hydroxypropylcellulose) (HPC)): 1 of 6

Cc1nn(-c2ccccc2)c2c1C(c1ccc(Cl)cc1)C(C#N)=C(N)O2 (centres undefined)
survivor count (dose: 200.0 mg/kg/injection, schedule: Q01DX009 (ip), vehicle: Klucel (hydroxypropylcellulose) (HPC)): 5 of 6

CSC(=S)/C=C(\O)c1ccccc1
survivor count (dose: 400.0 mg/kg/injection, schedule: Q04DX003 (ip), vehicle: saline): 0 of 6

CC(C)C1NC(=O)C(N)C(C)OC(=O)C(C(C)C)N(C)C(=O)CN(C)C(=O)C2CCCN2C1=O (centres undefined) (tested in a mixture with another compound)
survivor count (dose: 375.0 micrograms/kg/injection, schedule: Q01DX009 (ip), vehicle: other): 6 of 6 | survivor count (dose: 500.0 micrograms/kg/injection, schedule: Q01DX009 (ip), vehicle: water): 6 of 6
